What was measured:
[1] = Drug binding to plasma fractionation membrane (analyte:IS ratio, membrane-fractionated vs centrifuged plasma, paper-spray MS); conditions: Vivid™ asymmetric polysulfone membrane; blood spiked with 500 ng/mL; N = 10
[2] = as above; set-up: key: N.S.: Not significant. p < 0.05; conditions: Cytosep® membrane; blood spiked with 500 ng/mL; N = 10

| SMILES | % drug binding by membrane [1] [%] | % drug binding by membrane [2] |
| --- | --- | --- |
| Cc1nnc2n1-c1ccc(Cl)cc1C(c1ccccc1)=NC2 [alprazolam] | 80 | N.S.^b |
| CN1C(=O)CN=C(c2ccccc2)c2cc(Cl)ccc21 [diazepam] | 58 | N.S. |
| CC(C)NCC(O)COc1ccc(CC(N)=O)cc1 (centres unmarked) [atenolol] | 57 | N.S. |
| NC(=O)N1c2ccccc2C=Cc2ccccc21 [carbamazepine] | 78 | N.S. |

Source: patent publication US10483096B2, “Device and method for analysis of biofluids by ion generation using wetted porous material” (Indiana University Research and Technology Corporation, priority 2015, dated 2019)
